Results as given in patent publication US4485101 (dated 1984).
Square brackets hold non-standard residues; d marks the D form. Phe(4-Cl) = N[C@@H](Cc1ccc(Cl)cc1)C(=O)O

Assay: general procedure: Boc solid-phase peptide synthesis; benzhydrylamine polystyrene resin
Settings: whole synthesis, scale 0.50 mmol

“Ac-CKN[Phe(4-Cl)]F[dW]KTFTSC-NH2 (cysteine pairing not given here)” gave an isolated mass of 25 mg.
